For assay [1], the target named is large conductance Ca2+-activated potassium channel (BKCa) (rat (endogenous in mesenteric artery smooth muscle)) (UniProt Q62976). In words: co-IP; lysate of smooth muscle layer of rat mesenteric artery (1% Nonidet P-40, 150 mmol/L NaCl, 20 mmol/L Tris-HCl pH 8.0); 800 ug protein with 3 ug anti-Orai1 or anti-BKCa antibody overnight at 4°C, protein A agarose; immunoblot; preimmune IgG as control.

The chains behind the UniProt entries cited, without tags or fusion partners.
UniProt Q62976: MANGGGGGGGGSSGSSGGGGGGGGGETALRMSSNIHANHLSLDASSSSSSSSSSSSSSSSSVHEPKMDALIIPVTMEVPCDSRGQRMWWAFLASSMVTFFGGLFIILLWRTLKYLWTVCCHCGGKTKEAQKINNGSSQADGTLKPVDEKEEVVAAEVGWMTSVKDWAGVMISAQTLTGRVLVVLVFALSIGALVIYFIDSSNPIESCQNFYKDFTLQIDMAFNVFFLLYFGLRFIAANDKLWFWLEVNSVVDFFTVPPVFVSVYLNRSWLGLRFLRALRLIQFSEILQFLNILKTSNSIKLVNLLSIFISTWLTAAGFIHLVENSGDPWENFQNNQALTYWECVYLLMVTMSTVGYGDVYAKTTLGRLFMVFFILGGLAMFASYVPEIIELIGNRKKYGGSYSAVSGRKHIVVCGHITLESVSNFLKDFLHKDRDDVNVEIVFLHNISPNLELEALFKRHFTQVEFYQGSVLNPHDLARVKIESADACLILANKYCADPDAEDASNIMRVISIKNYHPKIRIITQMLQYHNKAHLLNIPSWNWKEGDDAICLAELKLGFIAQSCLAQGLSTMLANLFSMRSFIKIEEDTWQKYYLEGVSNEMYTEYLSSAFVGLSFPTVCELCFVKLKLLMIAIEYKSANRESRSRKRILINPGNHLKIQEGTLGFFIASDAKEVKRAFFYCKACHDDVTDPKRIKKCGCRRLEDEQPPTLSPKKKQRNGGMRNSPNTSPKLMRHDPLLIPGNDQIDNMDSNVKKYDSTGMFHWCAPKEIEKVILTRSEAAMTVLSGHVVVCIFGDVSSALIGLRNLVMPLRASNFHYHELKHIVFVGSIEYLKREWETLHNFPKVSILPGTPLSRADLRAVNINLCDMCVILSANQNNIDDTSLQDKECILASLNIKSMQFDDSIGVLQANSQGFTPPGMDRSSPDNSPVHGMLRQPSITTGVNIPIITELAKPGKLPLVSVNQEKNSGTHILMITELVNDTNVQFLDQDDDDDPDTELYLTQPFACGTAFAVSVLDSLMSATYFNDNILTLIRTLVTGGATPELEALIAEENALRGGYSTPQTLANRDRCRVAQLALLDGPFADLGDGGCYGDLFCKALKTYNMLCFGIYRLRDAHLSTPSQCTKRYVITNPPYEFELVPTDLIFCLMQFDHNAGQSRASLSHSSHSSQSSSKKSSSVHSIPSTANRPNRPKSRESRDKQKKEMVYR
UniProt Q5M848: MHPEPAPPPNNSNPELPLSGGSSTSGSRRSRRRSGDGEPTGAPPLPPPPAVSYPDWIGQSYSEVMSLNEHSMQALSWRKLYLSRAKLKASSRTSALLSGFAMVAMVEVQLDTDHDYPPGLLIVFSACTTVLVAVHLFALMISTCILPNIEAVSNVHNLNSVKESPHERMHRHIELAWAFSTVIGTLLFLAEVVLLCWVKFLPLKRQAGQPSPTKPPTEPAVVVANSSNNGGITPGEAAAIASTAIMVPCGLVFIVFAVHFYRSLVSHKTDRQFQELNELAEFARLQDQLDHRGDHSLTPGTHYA

The target is the same in assay [2]. The assay can be described thus: proximity ligation; in situ PLA (Duolink) on fixed, permeabilised rat mesenteric artery VSMCs with goat anti-Orai1 and rabbit anti-BKCa antibodies (1:40 each); control with anti-Orai1 alone; detects proteins within <40 nm.
Assay [3] deals with Orai1 (rat (endogenous in mesenteric artery smooth muscle)) (UniProt Q5M848). In words: co-IP; lysate of smooth muscle layer of rat mesenteric artery (1% Nonidet P-40, 150 mmol/L NaCl, 20 mmol/L Tris-HCl pH 8.0); 800 ug protein with 3 ug anti-Orai1 or anti-BKCa antibody overnight at 4°C, protein A agarose; immunoblot; preimmune IgG as control. A general note: A western blot detects proteins with antibodies after separation by electrophoresis.

No constants are given. Whether binding was seen depends on the method and setting. In cells and extracts the contact can be indirect. Some entries that bind do so weakly or less than the wild type.

For the substance Orai1 (from UniProt Q5M848 1-304), the binding entry in assay [1] and in assay [2] was “binds” each time.
Consider “large conductance Ca2+-activated potassium channel (BKCa) (from UniProt Q62976 1-1209)”, for which the binding result in assay [3] is given as “binds”.

Values taken from publication PMC4760400.
